{"source": "PubChem BioAssay AID743454 (Peter MacCallum Cancer Centre, 2014)", "test": "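Search for knock-downs that restore vorinostat killing in resistant colon cancer cells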 (primary screen)", "cell system": "human HCT116-VR colon cancer cells, selected for vorinostat resistance", "knock-down reagent": "siRNA pool against human genes, 40 nM siRNA pool", "timing": "vorinostat for 24 h, read-out about 72 h after transfection", "conditions": "vorinostat at 2.5 µM final", "read-out": "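Two measures, CellTiter-Fluor viability and luminescent caspase 3/7 activity, each as fold change against same-plate mock wells, mean of duplicates, then screen-wide robust z-score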", "reading the numbers": "viability robust z-score: higher = more viable cells than screen typical; caspase robust z-score: higher = more caspase 3/7 activity than screen typical", "rule for the call": "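Hits are knock-downs in viability class RV1/RV2 or caspase class CA1/CA2, excluding ones that killed cells in the no-drug cell-count arm; hits then retested with single siRNAs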", "note": "The deposit covers about 18,000 reagents; this is an unselected part. 450 of them (2.5%) were called active. 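Single biological run; no consistent viability z cut-off exists, so the class columns, not z-scores, define the calls.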"}
{"target": "ADCK1", "viability hit class": "no change", "caspase hit class": "no change", "viability robust z-score": 0.23, "caspase robust z-score": 0.27, "Call": "inactive"}
{"target": "MIEF2", "viability hit class": "no change", "caspase hit class": "no change", "viability robust z-score": 0.17, "caspase robust z-score": 0.42, "Call": "inactive"}
{"target": "ZNF57", "viability hit class": "no change", "caspase hit class": "no change", "viability robust z-score": -0.57, "caspase robust z-score": -0.05, "Call": "inactive"}
{"target": "CTHRC1", "viability hit class": "no change", "caspase hit class": "no change", "viability robust z-score": -0.23, "caspase robust z-score": 0.23, "Call": "inactive"}
{"target": "NTN4", "viability hit class": "no change", "caspase hit class": "no change", "viability robust z-score": 0.82, "caspase robust z-score": -0.12, "Call": "inactive"}
{"target": "MTNR1B", "viability hit class": "no change", "caspase hit class": "no change", "viability robust z-score": -1.53, "caspase robust z-score": -0.32, "Call": "inactive"}
{"target": "AIMP1", "viability hit class": "no change", "caspase hit class": "no change", "viability robust z-score": 0.05, "caspase robust z-score": 0.38, "Call": "inactive"}
{"target": "POR", "viability hit class": "no change", "caspase hit class": "no change", "viability robust z-score": 1.66, "caspase robust z-score": 0.14, "Call": "inactive"}
{"target": "BEND4", "viability hit class": "no change", "caspase hit class": "no change", "viability robust z-score": 0.2, "caspase robust z-score": -0.27, "Call": "inactive"}
{"target": "PLA1A", "viability hit class": "no change", "caspase hit class": "no change", "viability robust z-score": -0.58, "caspase robust z-score": 3.79, "Call": "inactive"}
{"target": "CEPT1", "viability hit class": "no change", "caspase hit class": "no change", "viability robust z-score": 0.28, "caspase robust z-score": 1.98, "Call": "inactive"}
{"target": "ADAM29", "viability hit class": "no change", "caspase hit class": "no change", "viability robust z-score": -2.48, "caspase robust z-score": 1.26, "Call": "inactive"}
{"target": "CPA4", "viability hit class": "no change", "caspase hit class": "no change", "viability robust z-score": 0.36, "caspase robust z-score": -0.76, "Call": "inactive"}
{"target": "IPO4", "viability hit class": "no change", "caspase hit class": "no change", "viability robust z-score": 1.12, "caspase robust z-score": 1.17, "Call": "inactive"}
{"target": "PARS2", "viability hit class": "no change", "caspase hit class": "no change", "viability robust z-score": 0.74, "caspase robust z-score": 1.06, "Call": "inactive"}
{"target": "MTMR8", "viability hit class": "no change", "caspase hit class": "no change", "viability robust z-score": -0.21, "caspase robust z-score": 1.53, "Call": "inactive"}
{"target": "TEX44", "viability hit class": "no change", "caspase hit class": "no change", "viability robust z-score": -0.84, "caspase robust z-score": 0.77, "Call": "inactive"}
{"target": "TRAPPC2", "viability hit class": "no change", "caspase hit class": "no change", "viability robust z-score": -0.27, "caspase robust z-score": -0.58, "Call": "inactive"}
{"target": "AP1S2", "viability hit class": "no change", "caspase hit class": "no change", "viability robust z-score": -0.54, "caspase robust z-score": -0.32, "Call": "inactive"}
{"target": "SESN2", "viability hit class": "no change", "caspase hit class": "no change", "viability robust z-score": 1.36, "caspase robust z-score": -0.62, "Call": "inactive"}
{"target": "MARCO", "viability hit class": "no change", "caspase hit class": "no change", "viability robust z-score": -1.28, "caspase robust z-score": 0.1, "Call": "inactive"}

Taken from above:
Under “caspase hit class”, NTN4 is entered as no change
ADCK1, caspase robust z-score: 0.27
